Reference: patent US8096982B2, “Method and apparatus to enhance optical transparency of biological tissues” (priority 1998, dated 2012)
Some results were stated once for a whole list of compounds, not compound by compound.

Tested on: sclera
Format: in vivo, rabbit
Conditions: after conjunctiva re-attached
Description: In order to assess the longitudinal effects of topical administration of glycerol or diatrizoate meglumine acid on the sclera, in-vivo experiments were carried out on two rabbits, and the eyes were examined for signs of inflammation once a day for approximately 1 week.
Each rabbit was put under anesthesia using an intra-muscular injection of Rompin® and Ketamine®. The conjunctiva serves as the permeability barrier for the sclera, and therefore, the conjunctiva was surgically separated from the sclera and the distal surface of the sclera was exposed. Topical drops of glycerol were administered on one eye, and of diatrizoate meglumine acid in the contra-lateral eye, for both rabbits. In the case of glycerol, the sclera turned clear, almost instantaneously (in less than 5 seconds), whereas in the case of diatrizoate meglumine acid, the sclera turned clear in approximately 1 minute. The conjunctiva was stretched over the sclera, again, and stay sutures were used to re-attach the conjunctiva to the limbal region. Ocumycing was administered topically to both eyes which had undergone surgery, to prevent infection. After approximately 5-10 minutes, the sclera in both eyes became opaque, again.

SMILES: OCC(O)CO [glycerol]
- time until sclera became opaque again: 5 to 10 min
